PubChem BioAssay AID493246, Drosophila RNAi Screening Center – 2011

- Screen: 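Identify essential fly genes by loss of cell viability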 (primary screen)
- Cell system: Drosophila Kc and S2R+ cells
- Knock-down reagent: long dsRNA against Drosophila genes
- Detection: 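Cell number per well after knock-down, printed as raw plate values; calls were based on per-plate z-scores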
- Reading the numbers: Kc cell number and S2R+ cell number: higher = more cells remaining
- Call rule: 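Counted as a hit if cell number falls by a z-score of at least 3 within its plate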
In all, the deposit lists about 21,000 reagents; this is a random part of those with a known target gene and a result. In the full data, 429 (2%) are marked active. 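Values are raw and not normalised between plates; calls rest on per-plate z-scores that were not deposited.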 Names joined by + are all predicted targets of the reagent. Not stated in the record: the amount of reagent, the time to read-out.

{"target":"CG4119","DRSC id":"DRSC17741","Kc cell number, rep 1":5.02e5,"S2R+ cell number, rep 1":6.94e5,"Outcome":"inactive"}
{"target":"Pal1 + Pdrg1","DRSC id":"DRSC06587","Kc cell number, rep 1":1.61e6,"Kc cell number, rep 2":1.61e6,"S2R+ cell number, rep 1":1.31e6,"S2R+ cell number, rep 2":1.34e6,"Outcome":"inactive"}
{"target":"AlkB","DRSC id":"DRSC19115","Kc cell number, rep 1":1.29e6,"Kc cell number, rep 2":1.49e6,"S2R+ cell number, rep 1":1.08e6,"S2R+ cell number, rep 2":1.14e6,"Outcome":"inactive"}
{"target":"GstD9","DRSC id":"DRSC14185","Kc cell number, rep 1":1.49e6,"Kc cell number, rep 2":1.44e6,"S2R+ cell number, rep 1":1.23e6,"S2R+ cell number, rep 2":1.29e6,"Outcome":"inactive"}
{"target":"Hayan","DRSC id":"DRSC19989","Kc cell number, rep 1":1.57e6,"Kc cell number, rep 2":1.58e6,"S2R+ cell number, rep 1":1.07e6,"S2R+ cell number, rep 2":1.20e6,"Outcome":"inactive"}
{"target":"lncRNA:CR40629","DRSC id":"DRSC20959","Kc cell number, rep 1":1.68e6,"Kc cell number, rep 2":1.74e6,"S2R+ cell number, rep 1":1.28e6,"S2R+ cell number, rep 2":1.26e6,"Outcome":"inactive"}
{"target":"Hasp","DRSC id":"DRSC02022","Kc cell number, rep 1":1.42e6,"Kc cell number, rep 2":1.49e6,"S2R+ cell number, rep 1":1.32e6,"S2R+ cell number, rep 2":1.37e6,"Outcome":"inactive"}
{"target":"CG13908 (retired record)","DRSC id":"DRSC08378","Kc cell number, rep 1":1.57e6,"Kc cell number, rep 2":1.38e6,"S2R+ cell number, rep 1":9.93e5,"S2R+ cell number, rep 2":1.26e6,"Outcome":"inactive"}

2 successive records already listed:
{"target":"lncRNA:CR40629","DRSC id":"DRSC20959","Kc cell number, rep 1":1.68e6,"Kc cell number, rep 2":1.74e6,"S2R+ cell number, rep 1":1.28e6,"S2R+ cell number, rep 2":1.26e6,"Outcome":"inactive"}
{"target":"Hasp","DRSC id":"DRSC02022","Kc cell number, rep 1":1.42e6,"Kc cell number, rep 2":1.49e6,"S2R+ cell number, rep 1":1.32e6,"S2R+ cell number, rep 2":1.37e6,"Outcome":"inactive"}

The results go on.
{"target":"CG8248","DRSC id":"DRSC07124","Kc cell number, rep 1":1.34e6,"Kc cell number, rep 2":1.40e6,"S2R+ cell number, rep 1":1.18e6,"S2R+ cell number, rep 2":1.22e6,"Outcome":"inactive"}
{"target":"CG12831","DRSC id":"DRSC06179","Kc cell number, rep 1":1.69e6,"Kc cell number, rep 2":1.87e6,"S2R+ cell number, rep 1":1.24e6,"S2R+ cell number, rep 2":1.39e6,"Outcome":"inactive"}
{"target":"Ref2","DRSC id":"DRSC02563","Kc cell number, rep 1":1.60e6,"Kc cell number, rep 2":1.63e6,"S2R+ cell number, rep 1":1.21e6,"S2R+ cell number, rep 2":1.34e6,"Outcome":"inactive"}
{"target":"CG7857","DRSC id":"DRSC10925","Kc cell number, rep 1":1.48e6,"Kc cell number, rep 2":1.48e6,"S2R+ cell number, rep 1":1.35e6,"S2R+ cell number, rep 2":1.38e6,"Outcome":"inactive"}
{"target":"CG32599","DRSC id":"DRSC19433","Kc cell number, rep 1":5.60e5,"S2R+ cell number, rep 1":7.72e5,"Outcome":"inactive"}
{"target":"CG13970","DRSC id":"DRSC02311","Kc cell number, rep 1":1.44e6,"Kc cell number, rep 2":1.54e6,"S2R+ cell number, rep 1":1.24e6,"S2R+ cell number, rep 2":3.28e5,"Outcome":"inactive"}
